Reference: the supplement of paper PMC12819154, “High-throughput peptide-centric local stability assay extends protein–ligand identification to membrane proteins, tissues and bacteria” (Nature Structural & Molecular Biology, 2025)
The other results are listed elsewhere or left out. Most entries show no effect beyond the scatter of the controls.

The chains behind the UniProt entries cited, without tags or fusion partners. Where a name states a change or a piece, a line headed by the entry shows the natural chain unless it says otherwise.
UniProt P45700: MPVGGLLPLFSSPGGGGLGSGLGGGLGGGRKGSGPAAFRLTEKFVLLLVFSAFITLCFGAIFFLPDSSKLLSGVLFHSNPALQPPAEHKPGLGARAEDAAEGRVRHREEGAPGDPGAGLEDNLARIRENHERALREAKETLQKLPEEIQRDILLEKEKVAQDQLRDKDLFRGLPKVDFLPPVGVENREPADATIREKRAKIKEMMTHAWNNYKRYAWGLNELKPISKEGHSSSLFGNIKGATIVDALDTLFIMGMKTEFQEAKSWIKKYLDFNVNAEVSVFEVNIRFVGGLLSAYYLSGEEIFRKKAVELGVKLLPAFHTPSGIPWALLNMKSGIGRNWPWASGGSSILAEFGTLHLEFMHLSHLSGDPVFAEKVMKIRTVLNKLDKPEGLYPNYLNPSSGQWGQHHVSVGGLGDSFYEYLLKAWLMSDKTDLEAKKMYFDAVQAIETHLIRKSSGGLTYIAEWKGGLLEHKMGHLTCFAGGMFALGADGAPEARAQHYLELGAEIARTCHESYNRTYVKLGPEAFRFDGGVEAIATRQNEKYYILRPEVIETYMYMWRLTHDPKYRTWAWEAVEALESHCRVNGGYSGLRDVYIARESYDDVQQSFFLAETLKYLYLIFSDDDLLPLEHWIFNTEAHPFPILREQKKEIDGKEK
UniProt P53702: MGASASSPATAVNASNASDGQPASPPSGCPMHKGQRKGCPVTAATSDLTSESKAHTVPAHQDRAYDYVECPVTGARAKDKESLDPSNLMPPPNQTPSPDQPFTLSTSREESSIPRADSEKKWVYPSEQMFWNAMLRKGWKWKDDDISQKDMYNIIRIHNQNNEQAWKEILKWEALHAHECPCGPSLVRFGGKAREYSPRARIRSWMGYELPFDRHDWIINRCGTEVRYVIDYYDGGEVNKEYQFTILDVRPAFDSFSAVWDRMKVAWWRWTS
UniProt P35582: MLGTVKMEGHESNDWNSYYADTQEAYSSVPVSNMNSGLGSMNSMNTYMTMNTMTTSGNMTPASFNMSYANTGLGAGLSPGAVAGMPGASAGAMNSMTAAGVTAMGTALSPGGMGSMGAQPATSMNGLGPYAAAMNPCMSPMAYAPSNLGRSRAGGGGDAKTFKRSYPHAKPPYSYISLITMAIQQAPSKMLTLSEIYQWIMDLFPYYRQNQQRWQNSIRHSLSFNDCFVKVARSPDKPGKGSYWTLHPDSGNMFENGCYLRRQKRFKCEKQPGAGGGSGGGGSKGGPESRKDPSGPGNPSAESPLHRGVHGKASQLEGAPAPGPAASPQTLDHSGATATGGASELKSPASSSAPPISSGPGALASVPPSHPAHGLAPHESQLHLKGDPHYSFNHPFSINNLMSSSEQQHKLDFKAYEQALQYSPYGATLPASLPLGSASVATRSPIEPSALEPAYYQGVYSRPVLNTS
UniProt P52480: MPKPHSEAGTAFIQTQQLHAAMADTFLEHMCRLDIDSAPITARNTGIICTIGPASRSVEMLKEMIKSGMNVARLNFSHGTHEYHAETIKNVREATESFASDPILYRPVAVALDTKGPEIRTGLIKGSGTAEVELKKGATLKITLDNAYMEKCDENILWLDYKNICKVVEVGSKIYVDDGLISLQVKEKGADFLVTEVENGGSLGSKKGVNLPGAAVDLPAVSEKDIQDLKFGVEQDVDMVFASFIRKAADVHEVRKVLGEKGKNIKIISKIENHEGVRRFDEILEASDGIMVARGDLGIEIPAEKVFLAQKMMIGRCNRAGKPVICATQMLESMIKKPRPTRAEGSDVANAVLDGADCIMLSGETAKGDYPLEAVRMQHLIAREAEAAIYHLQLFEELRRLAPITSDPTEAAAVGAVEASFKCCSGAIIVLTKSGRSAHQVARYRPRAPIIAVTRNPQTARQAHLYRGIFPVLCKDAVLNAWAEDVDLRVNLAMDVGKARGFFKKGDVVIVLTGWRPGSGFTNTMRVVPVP
UniProt P51658: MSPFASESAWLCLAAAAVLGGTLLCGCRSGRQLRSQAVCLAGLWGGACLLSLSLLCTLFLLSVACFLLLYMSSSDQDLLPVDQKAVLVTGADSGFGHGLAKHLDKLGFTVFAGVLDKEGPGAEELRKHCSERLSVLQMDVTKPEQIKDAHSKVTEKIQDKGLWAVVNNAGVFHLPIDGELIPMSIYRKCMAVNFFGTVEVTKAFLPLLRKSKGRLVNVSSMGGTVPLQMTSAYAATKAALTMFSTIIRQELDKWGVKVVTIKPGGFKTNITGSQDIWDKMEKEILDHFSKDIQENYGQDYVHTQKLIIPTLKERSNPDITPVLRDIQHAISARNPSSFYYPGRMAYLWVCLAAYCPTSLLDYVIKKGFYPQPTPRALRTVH
UniProt P40338, whole entry: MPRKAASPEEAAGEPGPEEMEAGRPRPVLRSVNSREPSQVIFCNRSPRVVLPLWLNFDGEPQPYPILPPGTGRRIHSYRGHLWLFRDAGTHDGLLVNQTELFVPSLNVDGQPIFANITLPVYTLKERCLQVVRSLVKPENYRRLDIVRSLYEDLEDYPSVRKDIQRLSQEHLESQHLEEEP
UniProt P50247: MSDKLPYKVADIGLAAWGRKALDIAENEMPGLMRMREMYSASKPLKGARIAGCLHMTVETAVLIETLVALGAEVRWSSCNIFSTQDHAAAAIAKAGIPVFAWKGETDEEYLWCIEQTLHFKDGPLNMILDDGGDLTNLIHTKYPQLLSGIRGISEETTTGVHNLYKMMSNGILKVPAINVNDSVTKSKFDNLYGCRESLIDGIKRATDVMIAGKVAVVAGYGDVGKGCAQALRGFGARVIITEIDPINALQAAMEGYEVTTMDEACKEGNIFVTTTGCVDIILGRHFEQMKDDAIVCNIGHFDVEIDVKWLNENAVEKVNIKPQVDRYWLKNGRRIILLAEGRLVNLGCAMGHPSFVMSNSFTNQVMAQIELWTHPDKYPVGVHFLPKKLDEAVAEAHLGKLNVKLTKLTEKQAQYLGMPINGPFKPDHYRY
UniProt P51432: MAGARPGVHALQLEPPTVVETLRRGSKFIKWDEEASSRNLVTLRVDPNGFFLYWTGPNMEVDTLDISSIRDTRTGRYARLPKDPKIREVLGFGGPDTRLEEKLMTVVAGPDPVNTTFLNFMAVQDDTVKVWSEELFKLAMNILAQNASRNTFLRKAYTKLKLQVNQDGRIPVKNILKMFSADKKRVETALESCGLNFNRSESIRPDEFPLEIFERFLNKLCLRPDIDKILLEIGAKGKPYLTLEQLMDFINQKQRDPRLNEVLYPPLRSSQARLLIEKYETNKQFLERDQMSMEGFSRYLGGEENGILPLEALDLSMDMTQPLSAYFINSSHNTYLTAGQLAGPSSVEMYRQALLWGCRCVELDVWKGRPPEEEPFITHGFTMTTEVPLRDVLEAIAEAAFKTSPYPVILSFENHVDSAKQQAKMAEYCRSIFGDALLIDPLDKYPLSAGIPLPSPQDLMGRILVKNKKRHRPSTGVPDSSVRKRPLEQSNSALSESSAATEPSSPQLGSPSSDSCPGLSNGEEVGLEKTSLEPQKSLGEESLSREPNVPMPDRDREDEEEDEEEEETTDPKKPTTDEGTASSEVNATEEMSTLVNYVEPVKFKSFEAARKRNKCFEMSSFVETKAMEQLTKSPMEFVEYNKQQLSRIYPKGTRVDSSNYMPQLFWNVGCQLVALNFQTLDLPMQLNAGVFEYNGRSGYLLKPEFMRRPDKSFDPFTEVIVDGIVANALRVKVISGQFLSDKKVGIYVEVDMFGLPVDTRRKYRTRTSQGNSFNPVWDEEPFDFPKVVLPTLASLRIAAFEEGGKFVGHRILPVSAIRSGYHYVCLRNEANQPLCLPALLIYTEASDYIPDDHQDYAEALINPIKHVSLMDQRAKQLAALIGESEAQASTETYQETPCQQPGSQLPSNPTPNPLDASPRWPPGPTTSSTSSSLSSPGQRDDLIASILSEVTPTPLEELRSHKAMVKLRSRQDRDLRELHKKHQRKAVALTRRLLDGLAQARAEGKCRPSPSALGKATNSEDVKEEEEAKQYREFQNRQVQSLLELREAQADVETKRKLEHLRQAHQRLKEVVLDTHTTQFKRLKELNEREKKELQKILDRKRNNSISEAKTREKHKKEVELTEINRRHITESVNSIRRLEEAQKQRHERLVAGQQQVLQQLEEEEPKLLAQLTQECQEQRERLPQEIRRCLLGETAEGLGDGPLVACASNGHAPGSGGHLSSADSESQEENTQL
UniProt P52482: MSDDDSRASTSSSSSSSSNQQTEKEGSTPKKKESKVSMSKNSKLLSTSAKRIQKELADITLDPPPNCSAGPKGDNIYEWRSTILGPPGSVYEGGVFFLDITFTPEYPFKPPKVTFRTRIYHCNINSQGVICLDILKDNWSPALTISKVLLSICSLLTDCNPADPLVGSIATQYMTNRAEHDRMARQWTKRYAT
UniProt P50462: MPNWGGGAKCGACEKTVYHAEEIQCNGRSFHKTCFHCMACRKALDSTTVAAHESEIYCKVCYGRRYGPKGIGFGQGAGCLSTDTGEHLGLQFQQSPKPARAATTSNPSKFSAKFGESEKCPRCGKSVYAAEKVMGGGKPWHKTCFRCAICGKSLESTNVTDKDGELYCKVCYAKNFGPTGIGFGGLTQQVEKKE
UniProt P42232: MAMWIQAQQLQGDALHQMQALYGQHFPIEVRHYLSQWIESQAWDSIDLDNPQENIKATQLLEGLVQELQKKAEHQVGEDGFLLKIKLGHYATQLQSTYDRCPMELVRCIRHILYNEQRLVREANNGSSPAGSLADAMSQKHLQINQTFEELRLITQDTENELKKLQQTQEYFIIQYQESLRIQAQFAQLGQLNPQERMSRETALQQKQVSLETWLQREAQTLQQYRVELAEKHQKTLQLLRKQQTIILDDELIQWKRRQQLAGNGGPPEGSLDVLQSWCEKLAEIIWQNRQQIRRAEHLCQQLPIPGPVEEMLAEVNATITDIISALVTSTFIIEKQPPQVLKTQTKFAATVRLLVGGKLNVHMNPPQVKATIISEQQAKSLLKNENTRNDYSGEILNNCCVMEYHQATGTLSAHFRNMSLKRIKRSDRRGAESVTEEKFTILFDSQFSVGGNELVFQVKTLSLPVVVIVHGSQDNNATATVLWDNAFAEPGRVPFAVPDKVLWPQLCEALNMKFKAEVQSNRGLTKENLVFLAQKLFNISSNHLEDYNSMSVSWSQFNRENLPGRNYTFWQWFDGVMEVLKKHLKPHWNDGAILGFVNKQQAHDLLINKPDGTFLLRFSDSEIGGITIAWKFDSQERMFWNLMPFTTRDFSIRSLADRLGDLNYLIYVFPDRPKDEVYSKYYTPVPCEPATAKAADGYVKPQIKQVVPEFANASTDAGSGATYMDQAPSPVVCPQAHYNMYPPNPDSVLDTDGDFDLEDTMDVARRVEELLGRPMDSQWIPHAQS
UniProt P52927: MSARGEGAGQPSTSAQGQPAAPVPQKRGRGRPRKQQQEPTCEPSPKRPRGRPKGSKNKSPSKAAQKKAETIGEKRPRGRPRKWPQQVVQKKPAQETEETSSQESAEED
UniProt P52431: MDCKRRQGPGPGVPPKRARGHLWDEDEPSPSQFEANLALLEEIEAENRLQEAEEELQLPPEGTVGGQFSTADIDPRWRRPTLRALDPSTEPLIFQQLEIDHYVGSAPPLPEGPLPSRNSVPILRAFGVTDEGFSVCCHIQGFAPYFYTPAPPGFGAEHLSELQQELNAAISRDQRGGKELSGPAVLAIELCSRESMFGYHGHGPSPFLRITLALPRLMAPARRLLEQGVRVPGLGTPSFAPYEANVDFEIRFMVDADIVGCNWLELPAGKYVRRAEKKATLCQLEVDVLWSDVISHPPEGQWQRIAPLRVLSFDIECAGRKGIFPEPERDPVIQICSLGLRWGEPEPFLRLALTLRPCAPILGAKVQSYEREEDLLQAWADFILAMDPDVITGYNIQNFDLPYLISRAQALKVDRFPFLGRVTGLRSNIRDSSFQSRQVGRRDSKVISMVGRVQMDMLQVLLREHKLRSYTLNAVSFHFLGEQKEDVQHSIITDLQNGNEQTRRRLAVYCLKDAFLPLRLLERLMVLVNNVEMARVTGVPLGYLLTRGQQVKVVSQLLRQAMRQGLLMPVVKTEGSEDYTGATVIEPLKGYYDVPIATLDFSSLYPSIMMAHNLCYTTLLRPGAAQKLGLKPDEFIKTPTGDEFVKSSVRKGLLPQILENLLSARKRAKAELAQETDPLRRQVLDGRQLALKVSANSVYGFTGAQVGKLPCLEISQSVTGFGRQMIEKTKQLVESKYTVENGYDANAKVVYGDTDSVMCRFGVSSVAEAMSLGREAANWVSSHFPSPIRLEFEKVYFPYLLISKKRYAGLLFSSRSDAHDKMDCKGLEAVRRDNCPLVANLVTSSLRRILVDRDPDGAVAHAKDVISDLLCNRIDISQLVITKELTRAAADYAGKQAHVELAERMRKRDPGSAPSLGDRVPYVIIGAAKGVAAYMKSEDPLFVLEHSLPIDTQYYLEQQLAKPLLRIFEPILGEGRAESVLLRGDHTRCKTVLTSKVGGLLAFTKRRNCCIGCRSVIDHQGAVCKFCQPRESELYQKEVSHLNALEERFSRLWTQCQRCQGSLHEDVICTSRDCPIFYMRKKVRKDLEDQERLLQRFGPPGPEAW

Compound: CN[C@@H]1C[C@H]2O[C@@](C)([C@@H]1OC)n1c3ccccc3c3c4c(c5c6ccccc6n2c5c31)C(=O)NC4 [staurosporine]
Test: log2 fold change of tryptic peptide abundance, ligand vs vehicle (limited proteolysis) (log2 ratio); higher = more trypsin-susceptible (destabilized)
Conditions: ligand concentration: 20 uM; sample: mouse liver crude lysate; replicate design: treated separately

Target	log2 fold change
UniProt P51830 (peptide sequence: VGQSIMHGKDLEVEK, peptide start residue: 313)	0.708
UniProt P45700 (peptide sequence: FDGGVEAIATR, peptide start residue: 528)	-0.692
UniProt P48758 (peptide sequence: PVALVTGANK, peptide start residue: 6)	0.197
UniProt P53702 (peptide sequence: KGCPVTAATSDLTSESK, peptide start residue: 37)	-0.305
UniProt P35582 (peptide sequence: KDPSGPGNPSAESPLHR, peptide start residue: 291)	0.142
UniProt P41183 (peptide sequence: SDIHYSVPEGPKPAVPSAR, peptide start residue: 272)	-0.144
UniProt P52624 (peptide sequence: CSNITIIR, peptide start residue: 132)	-0.505
UniProt P47879 (peptide sequence: TGVKLPGGLEPK, peptide start residue: 229)	0.307
UniProt P50516 (peptide sequence: LPANHPLLTGQR, peptide start residue: 221)	0.7
UniProt P52480 (peptide sequence: EAEAAIYHLQLFEELRR, peptide start residue: 384)	0.174
UniProt P35428 (peptide sequence: ADILEMTVK, peptide start residue: 78)	-0.204
UniProt P51658 (peptide sequence: KGFYPQPTPR, peptide start residue: 366)	0.313
UniProt P40338 (peptide sequence: SLVKPENYR, peptide start residue: 134)	0.357
UniProt P42125 (peptide sequence: QREADIQNFTSFISKDSIQK, peptide start residue: 256)	-0.346
UniProt P50247 (peptide sequence: GISEETTTGVHNLYK, peptide start residue: 152)	-0.242
UniProt P49962 (peptide sequence: FHSQLMR, peptide start residue: 65)	0.134
UniProt P49919 (peptide sequence: LQLGPRPPPVAVAVIPR, peptide start residue: 104)	0.527
UniProt P48722 (peptide sequence: YDHLDPAEMER, peptide start residue: 726)	-0.446
UniProt P51432 (peptide sequence: SLGEESLSR, peptide start residue: 537)	-0.235
UniProt P52482 (peptide sequence: GDNIYEWR, peptide start residue: 81)	0.0256
UniProt P45448 (peptide sequence: HGLTAIASAPGSETR, peptide start residue: 16)	-0.613
UniProt P37040 (peptide sequence: IQTTAPPVK, peptide start residue: 57)	0.344
UniProt P53568 (peptide sequence: VNQLKEENER, peptide start residue: 94)	-0.299
UniProt P50462 (peptide sequence: VMGGGKPWHK, peptide start residue: 133)	0.332
UniProt P52430 (peptide sequence: LLIGTVFHK, peptide start residue: 341)	0.103
UniProt P42232 (peptide sequence: ATQLLEGLVQELQKK, peptide start residue: 57)	-0.344
UniProt P52927 (peptide sequence: KQQQEPTCEPSPK, peptide start residue: 34)	-0.282
UniProt P52431 (peptide sequence: ILVDRDPDGAVAHAK, peptide start residue: 849)	0.268

Taken from the listing for reference:
Target	log2 fold change
UniProt P53702 (peptide sequence: KGCPVTAATSDLTSESK, peptide start residue: 37)	-0.305
UniProt P35582 (peptide sequence: KDPSGPGNPSAESPLHR, peptide start residue: 291)	0.142
UniProt P41183 (peptide sequence: SDIHYSVPEGPKPAVPSAR, peptide start residue: 272)	-0.144
UniProt P52624 (peptide sequence: CSNITIIR, peptide start residue: 132)	-0.505
UniProt P47879 (peptide sequence: TGVKLPGGLEPK, peptide start residue: 229)	0.307
UniProt P50516 (peptide sequence: LPANHPLLTGQR, peptide start residue: 221)	0.7
UniProt P52480 (peptide sequence: EAEAAIYHLQLFEELRR, peptide start residue: 384)	0.174
